Assay results reported in patent US20070270486A1.
No constants are given. Whether binding was seen depends on the method and setting. Some binding calls cover weakened binding; strength is not graded here.

Sequences of proteins named here, by UniProt entry; tags and fusion partners are left off. Residues count along the entry.
UniProt P61823, residues 47-150: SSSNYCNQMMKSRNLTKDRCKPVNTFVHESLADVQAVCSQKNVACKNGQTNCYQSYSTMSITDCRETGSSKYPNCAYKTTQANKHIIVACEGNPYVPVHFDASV

Experiments:
Assay in all cases: western blot of lysates of transfected HEK-293 cells
[1] = biological target: CFTR truncated after S-tag insert at Site A: S{AS[SG(…)PPPSGL-COOH [SEQ ID NO:22] (human) (UniProt P13569)
[2] = biological target: CFTR with S-tag insert at Site A (between S895 and T896): S{AS[GGGG(…)GGGG(…)GGGG(…)GGGG(…)GGGG]PR}T [SEQ ID NO:20] (human) (UniProt P13569)
[3] = biological target: CFTR with S-tag insert at Site A (between S895 and T896): S{AS[GGGG(…)GGGG(…)GGGG(…)GGGG]PR}T [SEQ ID NO:19] (human) (UniProt P13569)

binding [1]: binds
binding [2]: binds
binding [3]: binds
Substance: S-protein HRP (from UniProt P61823 47-150) (enzyme)
